Results are given in words; binding and its absence hold for the method and conditions named. Binding seen in cells or lysates may run through a third protein. Some binding calls cover weakened binding; strength is not graded here. Sequences can lack the tags named with a protein.

The assay addresses T1, Flag-IRF7 (interferon regulatory factor 7) (UniProt Q92985).
T1 sequence: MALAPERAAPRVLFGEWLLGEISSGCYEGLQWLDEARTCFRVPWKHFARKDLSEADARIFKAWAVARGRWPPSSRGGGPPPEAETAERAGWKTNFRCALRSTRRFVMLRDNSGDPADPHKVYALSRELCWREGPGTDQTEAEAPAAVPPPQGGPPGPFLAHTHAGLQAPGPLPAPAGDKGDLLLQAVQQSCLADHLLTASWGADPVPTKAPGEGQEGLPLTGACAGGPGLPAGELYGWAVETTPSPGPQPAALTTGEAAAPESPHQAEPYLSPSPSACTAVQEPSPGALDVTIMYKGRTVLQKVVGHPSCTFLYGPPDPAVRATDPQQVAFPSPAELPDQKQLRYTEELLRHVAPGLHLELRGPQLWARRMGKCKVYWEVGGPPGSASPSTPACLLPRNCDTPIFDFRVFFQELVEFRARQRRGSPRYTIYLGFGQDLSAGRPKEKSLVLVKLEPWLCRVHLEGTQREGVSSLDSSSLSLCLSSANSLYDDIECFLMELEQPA
The assay can be described thus: co-IP; 293T cells transfected with Myc-AIP and/or Flag-IRF7, uninfected or infected with SeV (or transfected with poly(I:C)); lysed in RIPA buffer, 400 ug lysate incubated overnight with mouse anti-Flag antibody, protein A/G PLUS-agarose, Western blot. For orientation: Immunoblotting shows a protein as a band on a membrane.

B1: Myc-AIP (aryl hydrocarbon receptor interacting protein), wildtype (protein, UniProt O00170 1-330)
chain: MADIIARLREDGIQKRVIQEGRGELPDFQDGTKATFHYRTLHSDDEGTVLDDSRARGKPMELIIGKKFKLPVWETIVCTMREGEIAQFLCDIKHVVLYPLVAKSLRNIAVGKDPLEGQRHCCGVAQMREHSSLGHADLDALQQNPQPLIFHMEMLKVESPGTYQQDPWAMTDEEKAKAVPLIHQEGNRLYREGHVKEAAAKYYDAIACLKNLQMKEQPGSPEWIQLDQQITPLLLNYCQCKLVVEEYYEVLDHCSSILNKYDDNVKAYFKRGKAHAAVWNAQEAQADFAKVLELDPALAPVVSRELRALEARIRQKDEEDKARFRGIFSH
On to B1, for which the binding result is “binds”.

B2: Myc-AIP T40E (phosphomimetic mutant) (protein, UniProt O00170 1-330)
chain: MADIIARLREDGIQKRVIQEGRGELPDFQDGTKATFHYRELHSDDEGTVLDDSRARGKPMELIIGKKFKLPVWETIVCTMREGEIAQFLCDIKHVVLYPLVAKSLRNIAVGKDPLEGQRHCCGVAQMREHSSLGHADLDALQQNPQPLIFHMEMLKVESPGTYQQDPWAMTDEEKAKAVPLIHQEGNRLYREGHVKEAAAKYYDAIACLKNLQMKEQPGSPEWIQLDQQITPLLLNYCQCKLVVEEYYEVLDHCSSILNKYDDNVKAYFKRGKAHAAVWNAQEAQADFAKVLELDPALAPVVSRELRALEARIRQKDEEDKARFRGIFSH
For the molecule B2, the binding entry is on record as “binds”.

For the origin of these results see publication PMC10792245.
